Consider two substances from article PMC7817841.

Protein sequences, listed by entry. Tags and fused reporters are not part of them.
UniProt P42227: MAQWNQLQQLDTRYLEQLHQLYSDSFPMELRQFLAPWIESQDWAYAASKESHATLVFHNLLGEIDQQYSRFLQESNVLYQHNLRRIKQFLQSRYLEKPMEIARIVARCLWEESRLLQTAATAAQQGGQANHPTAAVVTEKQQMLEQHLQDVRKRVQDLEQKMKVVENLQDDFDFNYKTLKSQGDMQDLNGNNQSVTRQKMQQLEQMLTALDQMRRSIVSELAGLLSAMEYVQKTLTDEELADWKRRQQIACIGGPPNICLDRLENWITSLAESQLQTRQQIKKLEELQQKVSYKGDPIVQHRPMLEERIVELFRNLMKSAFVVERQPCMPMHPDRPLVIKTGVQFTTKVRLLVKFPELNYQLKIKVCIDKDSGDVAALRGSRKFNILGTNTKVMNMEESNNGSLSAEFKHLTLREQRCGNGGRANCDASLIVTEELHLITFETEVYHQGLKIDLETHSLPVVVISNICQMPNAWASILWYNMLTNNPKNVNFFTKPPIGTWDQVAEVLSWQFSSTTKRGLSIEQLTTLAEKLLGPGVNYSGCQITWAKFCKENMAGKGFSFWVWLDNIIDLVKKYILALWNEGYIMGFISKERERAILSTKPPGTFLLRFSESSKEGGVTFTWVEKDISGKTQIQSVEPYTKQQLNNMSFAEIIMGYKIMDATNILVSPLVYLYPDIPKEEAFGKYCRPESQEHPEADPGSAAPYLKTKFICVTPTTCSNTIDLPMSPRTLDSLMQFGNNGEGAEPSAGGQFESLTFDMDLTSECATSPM
UniProt P35710: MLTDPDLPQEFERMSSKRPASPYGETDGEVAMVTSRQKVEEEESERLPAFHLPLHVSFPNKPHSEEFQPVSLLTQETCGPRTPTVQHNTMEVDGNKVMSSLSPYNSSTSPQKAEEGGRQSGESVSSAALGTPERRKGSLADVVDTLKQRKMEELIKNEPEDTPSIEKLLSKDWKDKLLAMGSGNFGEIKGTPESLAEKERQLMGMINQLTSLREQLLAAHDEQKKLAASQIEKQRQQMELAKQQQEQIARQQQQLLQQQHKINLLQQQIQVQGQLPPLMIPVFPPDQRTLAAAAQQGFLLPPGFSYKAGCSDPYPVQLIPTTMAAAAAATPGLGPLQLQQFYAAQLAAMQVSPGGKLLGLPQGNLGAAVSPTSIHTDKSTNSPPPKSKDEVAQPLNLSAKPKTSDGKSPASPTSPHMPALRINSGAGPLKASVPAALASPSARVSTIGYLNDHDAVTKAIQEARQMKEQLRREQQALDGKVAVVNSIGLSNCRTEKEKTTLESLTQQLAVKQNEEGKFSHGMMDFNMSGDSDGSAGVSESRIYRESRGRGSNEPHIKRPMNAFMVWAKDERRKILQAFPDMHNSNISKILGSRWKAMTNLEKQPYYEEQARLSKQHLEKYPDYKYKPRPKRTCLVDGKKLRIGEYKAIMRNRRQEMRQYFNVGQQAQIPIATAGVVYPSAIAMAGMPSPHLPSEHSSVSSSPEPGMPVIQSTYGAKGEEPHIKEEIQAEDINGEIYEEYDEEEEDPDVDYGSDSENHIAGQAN

The target of assay [1] is HA-tagged STAT3 (signal transducer and activator of transcription 3) (UniProt P42227). Kind of assay: co-IP; Hela cells co-transfected with pcDNA3.1-SOX-5 Flag and pcDNA3.1-STAT3 HA, 48 h, stimulated with PI and Biochanin A (10 uM); whole-cell lysate; IP with anti-HA antibody or control mouse IgG, IB with anti-HA or anti-Flag; lysis buffer 0.5% Triton X-100, 20 mM Hepes pH 7.4, 150 mM NaCl.

Assay [2] has as its target STAT3 (signal transducer and activator of transcription 3), endogenous in Th17 cells (mouse (endogenous in Th17 cells)) (UniProt P42227). In words: co-IP; whole-cell lysates of Th17 cells differentiated from naive CD4+ T cells; endogenous proteins; IP with anti-STAT3 antibody or control mouse IgG, IB with anti-SOX-5 or anti-STAT3; lysis buffer 0.5% Triton X-100, 20 mM Hepes pH 7.4, 150 mM NaCl.

These are yes or no findings as the source states them, for the method shown. In cells and extracts the contact can be indirect. Some binding calls cover weakened binding; strength is not graded here.

As to “Flag-tagged SOX-5 (SRY-box transcription factor 5) (from UniProt P35710 1-763)”, in assay [1], the binding result is on record as “binds”.

Turning to “SOX-5 (SRY-box transcription factor 5), endogenous in Th17 cells (from UniProt P35710 1-763)”, in assay [2], the binding result is recorded as “binds”.
